Measured values as given in article PMC6484772, “S100A3 a partner protein regulating the stability/activity of RARα and PML-RARα in cellular models of breast/lung cancer and acute myeloid leukemia” (Oncogene, 2018).
These are yes or no findings as the source states them, for the method shown. In cells and extracts the contact can be indirect. These calls come from enrichment with a bait or labelling near it, and not all partners need be listed.

By UniProt entry, the sequences of proteins in these tests, tags left out.
UniProt P10276: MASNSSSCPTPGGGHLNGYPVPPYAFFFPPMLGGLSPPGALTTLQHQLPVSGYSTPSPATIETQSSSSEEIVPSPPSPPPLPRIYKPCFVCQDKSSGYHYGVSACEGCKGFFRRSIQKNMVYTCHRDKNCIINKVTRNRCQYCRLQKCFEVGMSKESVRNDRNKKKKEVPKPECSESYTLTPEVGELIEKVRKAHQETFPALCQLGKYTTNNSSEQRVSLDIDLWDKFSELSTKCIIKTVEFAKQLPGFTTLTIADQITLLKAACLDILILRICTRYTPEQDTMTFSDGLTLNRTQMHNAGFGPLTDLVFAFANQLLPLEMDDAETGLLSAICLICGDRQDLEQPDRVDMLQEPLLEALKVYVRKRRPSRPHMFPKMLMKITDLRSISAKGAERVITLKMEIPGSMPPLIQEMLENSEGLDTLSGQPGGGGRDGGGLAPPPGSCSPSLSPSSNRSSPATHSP
UniProt P04792: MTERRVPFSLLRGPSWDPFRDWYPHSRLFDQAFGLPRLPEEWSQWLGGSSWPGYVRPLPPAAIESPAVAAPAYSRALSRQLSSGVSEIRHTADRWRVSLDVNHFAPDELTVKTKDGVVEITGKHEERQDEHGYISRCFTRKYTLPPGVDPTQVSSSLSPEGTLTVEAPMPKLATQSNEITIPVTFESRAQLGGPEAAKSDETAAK
UniProt Q01469: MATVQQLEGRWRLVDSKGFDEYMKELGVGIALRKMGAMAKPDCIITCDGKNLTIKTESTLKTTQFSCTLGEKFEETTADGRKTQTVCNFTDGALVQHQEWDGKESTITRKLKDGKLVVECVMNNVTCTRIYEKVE
UniProt Q9P0M6: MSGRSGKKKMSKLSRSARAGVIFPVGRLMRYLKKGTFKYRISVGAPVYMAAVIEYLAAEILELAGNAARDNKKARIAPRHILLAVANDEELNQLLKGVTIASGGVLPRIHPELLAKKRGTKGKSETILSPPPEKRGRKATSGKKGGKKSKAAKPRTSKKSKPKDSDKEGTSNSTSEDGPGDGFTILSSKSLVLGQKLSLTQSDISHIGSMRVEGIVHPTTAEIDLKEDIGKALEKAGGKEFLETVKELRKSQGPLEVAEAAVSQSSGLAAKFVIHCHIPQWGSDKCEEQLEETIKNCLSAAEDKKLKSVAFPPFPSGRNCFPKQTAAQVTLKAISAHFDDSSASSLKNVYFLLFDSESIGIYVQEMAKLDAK

B1: S100A3 (over-expressed in COS-7) (natural protein, human, UniProt P33764 1-101, looked up)
chain: MARPLEQAVAAIVCTFQEYAGRCGDKYKLCQAELKELLQKELATWTPTEFRECDYNKFMSVLDTNKDCEVDFVEYVRSLACLCLYCHEYFKDCPSEPPCSQ
notes: protein S100-A3; source: COS-7, transiently transfected (pcDNA3 expression plasmid for the S100A3 cDNA), in cell extract; immunoprecipitated with anti-S100A3 for the far-western
B2: CEP83 (protein, UniProt Q9Y592 1-701)
chain: MVVSTFTDMDTFPNNFPPGGDSGLTGSQSEFQKMLIDERLRCEHHKANYQTLKAEHTRLQNEHVKLQNELKHLFNEKQTQQEKLQLLLEELRGELVEKTKDLEEMKLQILTPQKLELLRAQIQQELETPMRERFRNLDEEVEKYRAVYNKLRYEHTFLKSEFEHQKEEYARILDEGKIKYESEIARLEEDKEELRNQLLNVDLTKDSKRVEQLAREKVYLCQKLKGLEAEVAELKAEKENSEAQVENAQRIQVRQLAEMQATVRSLEAEKQSANLRAERLEKELQSSSEQNTFLINKLHKAEREINTLSSKVKELKHSNKLEITDIKLETARAKSELERERNKIQSELDGLQSDNEILKAAVEHHKVLLVEKDRELIRKVQAAKEEGYQKLVVLQDEKLELENRLADLEKMKVEHDVWRQSEKDQYEEKLRASQMAEEITRKELQSVRLKLQQQIVTIENAEKEKNENSDLKQQISSLQIQVTSLAQSENDLLNSNQMLKEMVERLKQECRNFRSQAEKAQLEAEKTLEEKQIQWLEEKHKLHERITDREEKYNQAKEKLQRAAIAQKKRKSLHENKLKRLQEKVEVLEAKKEELETENQVLNRQNVPFEDYTRLQKRLKDIQRRHNEFRSLILVPNMPPTASINPVSFQSSAMVPSMELPFPPHMQEEQHQRELSLLRKRLEELETTQRKQLEELGSSGE

Target: FLAG-tagged RARα (UniProt P10276)
Test: affinity purification with mass spectrometry; nuclear fractions (NABP and INP) of RA-453 and control FL-453 cells exposed to vehicle or ATRA, immunoprecipitated with anti-FLAG antibodies, quantitative proteomic analysis

binding, binds:
HSPB1/HSP27 (from UniProt P04792 1-205), FABP5 (from UniProt Q01469 1-135), H2AW core-histone protein (from UniProt Q9P0M6 1-372), B1, B2
